From US12318370B2, “Processes for preparing solid state forms” (Varda Space Industries, Inc., priority 2022, dated 2025)

Assay: Solubility of ritonavir solid forms in 0.1 N HCl by UV/VIS, with XRPD of recovered solids
Type: physicochemical
Conditions: ambient, UV/VIS at 247 nm, supernatant diluted 10-fold

Row | SMILES | Absorbance after 48 h
1 | CC(C)c1nc(CN(C)C(=O)N[C@H](C(=O)N[C@@H](Cc2ccccc2)C[C@H](O)[C@H](Cc2ccccc2)NC(=O)OCc2cncs2)C(C)C)cs1 (single isomer, unassigned) [Form II, 10-hydroxy-2-methyl-5-(1-methylethyl)-1-[2-(1-methylethyl)-4-thiazolyl]-3,6-dioxo-8,11-bis(phenylmethyl)-2,4,7,12-tetraazatridecan-13-oic acid, 5-thiazolylmethyl ester, [SS-(5R*,8R*,10R*,1R*)]] | 0.12
2 | CC(C)c1nc(CN(C)C(=O)N[C@H](C(=O)N[C@@H](Cc2ccccc2)C[C@H](O)[C@H](Cc2ccccc2)NC(=O)OCc2cncs2)C(C)C)cs1 (single isomer, unassigned) [Amorphous, 10-hydroxy-2-methyl-5-(1-methylethyl)-1-[2-(1-methylethyl)-4-thiazolyl]-3,6-dioxo-8,11-bis(phenylmethyl)-2,4,7,12-tetraazatridecan-13-oic acid, 5-thiazolylmethyl ester, [SS-(5R*,8R*,10R*,1R*)]] | 1.43
3 | CC(C)c1nc(CN(C)C(=O)N[C@H](C(=O)N[C@@H](Cc2ccccc2)C[C@H](O)[C@H](Cc2ccccc2)NC(=O)OCc2cncs2)C(C)C)cs1 (single isomer, unassigned) [Form III, 10-hydroxy-2-methyl-5-(1-methylethyl)-1-[2-(1-methylethyl)-4-thiazolyl]-3,6-dioxo-8,11-bis(phenylmethyl)-2,4,7,12-tetraazatridecan-13-oic acid, 5-thiazolylmethyl ester, [SS-(5R*,8R*,10R*,1R*)]] | 1.08
4 | CC(C)c1nc(CN(C)C(=O)N[C@H](C(=O)N[C@@H](Cc2ccccc2)C[C@H](O)[C@H](Cc2ccccc2)NC(=O)OCc2cncs2)C(C)C)cs1 (single isomer, unassigned) [Form I, 10-hydroxy-2-methyl-5-(1-methylethyl)-1-[2-(1-methylethyl)-4-thiazolyl]-3,6-dioxo-8,11-bis(phenylmethyl)-2,4,7,12-tetraazatridecan-13-oic acid, 5-thiazolylmethyl ester, [SS-(5R*,8R*,10R*,1R*)]] | 0.30
